These are yes or no findings as the source states them, for the method shown. Some entries that bind do so weakly or less than the wild type.
Target: rFGF2 antigen (recombinant fibroblast growth factor 2) (UniProt P09038)
Assay: SPR, antibody over immobilised rFGF2

Sequences of proteins named here, by UniProt entry; tags and fusion partners are left off. Residues count along the entry.
UniProt P09038, residues 143-288: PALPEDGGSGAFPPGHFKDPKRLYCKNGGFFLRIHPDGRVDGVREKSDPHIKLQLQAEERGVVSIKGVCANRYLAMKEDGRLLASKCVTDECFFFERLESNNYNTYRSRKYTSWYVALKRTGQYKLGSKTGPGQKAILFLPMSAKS

B1: human anti-FGF2 antibody 62K98H (antibody, human IgG1, V domains shown)
VH: QITLKESGPTLVKPTQTLTLTCTFSGFSLSTSGVGVGWIRQPPGEALEWLAVIHWNEANYYSPYLRSRLTITKDTSKNQMVLTVTNMDPVDTATYYCARGANSDSSGRLDAFDIWGQGTMVTVSS
VL: DVVMTQSPLSLPVTLGQPASISCRSSQSLIYSDGNTRLYWFHQRPGQSPRRLIYGVSNRDSGVPDRFSGSGSGTDFTLKISRVEAEDVGVYYCMQSTHWPHTFGQGTKLEIK
notes: Human IgG1 format (AbVec vectors with human gamma1 HC and kappa LC constant regions)
Which binding does the source give for B1 here?
Its binding is “binds”.

B2: human anti-FGF2 antibody 85L117H (antibody, human IgG1, V domains shown)
VH: QVQLVQSGAELKRPGSSVKVSCRASGDTFKNYAITWVRQAPGQGLEWVGGIDPLVGVPNYTHRFQGRVTITADEPTSTTYMEFRDLTSDDTAVYYCARGVRDQHWSYFDSWGQGTLVTVSS
VL: QSVLTQPPSASGTPGQTVNISCSGATSNIGGGSVNWYQQLPGAAPRLLIHSDNERASGVPDRFSGSKSGTSASLAISGLQSEDEADYFCASWDDSLDGHVVFGGGTKVTVL
notes: Human IgG1 format (AbVec vectors with human gamma1 HC and lambda LC constant regions)
B2 was tested. Which binding did it give?
Its binding is “binds”.
